Values from PubChem BioAssay AID1259254 (NCATS, 2017).
Aim: 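Gene knock-downs that lead to re-replication, shown by excess G2 DNA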 (primary screen). Cell system: human HCT116 colorectal cancer cells. Reagent: single siRNA against human genes. Time to read-out: 3 days. Detection: 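Imaged Hoechst DNA stain sorts each cell into a cycle phase by DNA amount; per plate, G2 fraction set to 0% for non-targeting and 100% for GMNN siRNA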. Scale: G2 robust z-score: higher = more G2 cells, more excess DNA replication. Hit rule: 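Active siRNAs have a G2 robust z of 5 or more median absolute deviations over the median, which in these data means about 38% or higher of GMNN control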.
Here is one part, drawn at random, of about 59,000 reagents. About 1,550 of them (2.6%) were called active. 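G2 share is only a proxy for re-replication; each gene was hit by three separate siRNAs, and active genes were retested.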 Entries without a mark were called inactive. The numbers tell different reagents against one gene apart. Further read-outs or replicates are left out here. Not stated in the record: the amount of reagent.

PLCD1 (phospholipase C delta 1) #1 showed G2 robust z-score -0.277.
PLCD1 (phospholipase C delta 1) #2 scored G2 robust z-score 1.23.
Against PLCD1 (phospholipase C delta 1) #3 the deposit lists G2 robust z-score 0.0722.
After knock-down of NUCB1 (nucleobindin 1) #1, the record shows G2 robust z-score 1.92.
For NUCB1 (nucleobindin 1) #2, the entry reads G2 robust z-score 2.6.
NUCB1 (nucleobindin 1) #3 gave G2 robust z-score -0.516.
Knock-down of FBXO7 (F-box protein 7) #1 came out at: G2 robust z-score -0.894.
Against FBXO7 (F-box protein 7) #2 the deposit lists G2 robust z-score 1.64.
Depletion of FBXO7 (F-box protein 7) #3 resulted in: G2 robust z-score 1.91.
After knock-down of LENEP (lens epithelial protein) #1, the record shows G2 robust z-score -0.925.
LENEP (lens epithelial protein) #2 scored G2 robust z-score -1.06.
Knock-down of LENEP (lens epithelial protein) #3 came out at: G2 robust z-score 2.16.
With knock-down of SSX5 (SSX family member 5) #1, the screen gave G2 robust z-score -0.297.
With knock-down of SSX5 (SSX family member 5) #2, the screen gave G2 robust z-score 0.0357.
Against SSX5 (SSX family member 5) #3, the values are G2 robust z-score 0.853.
Against PRKAR2A #1 the deposit lists G2 robust z-score 1.49.
Silencing of PRKAR2A #2 gave: G2 robust z-score -0.481.
Knock-down of PRKAR2A #3 gave: G2 robust z-score -0.278.

In a second layout: results already given.
PLCD1 (phospholipase C delta 1) #1
- G2 robust z-score: -0.277

PLCD1 (phospholipase C delta 1) #2
- G2 robust z-score: 1.23

PLCD1 (phospholipase C delta 1) #3
- G2 robust z-score: 0.0722

NUCB1 (nucleobindin 1) #1
- G2 robust z-score: 1.92

Continued.
After knock-down of NPIPA1 (nuclear pore complex interacting protein family member A1) #1 the results were G2 robust z-score 1.12.
NPIPA1 (nuclear pore complex interacting protein family member A1) #2 showed G2 robust z-score 0.38.
Against NPIPA1 (nuclear pore complex interacting protein family member A1) #3, the entry reads G2 robust z-score 1.07.
Knock-down of AP1S2P2 (AP1S2 pseudogene 2) #1 gave: G2 robust z-score -0.534.
With knock-down of AP1S2P2 (AP1S2 pseudogene 2) #2, the screen gave G2 robust z-score -0.581.
With knock-down of AP1S2P2 (AP1S2 pseudogene 2) #3, the record shows G2 robust z-score 0.193.
NEUROD6 (neuronal differentiation 6) #1 showed G2 robust z-score -1.14.
Silencing of NEUROD6 (neuronal differentiation 6) #2 gave: G2 robust z-score 2.41.
With knock-down of NEUROD6 (neuronal differentiation 6) #3, the record shows G2 robust z-score -0.475.
For THRSP (thyroid hormone responsive) #1, the entry reads G2 robust z-score -0.647.
Silencing of THRSP (thyroid hormone responsive) #2 came out at: G2 robust z-score -0.372.
With knock-down of THRSP (thyroid hormone responsive) #3, the screen gave G2 robust z-score -0.959.
